No constants are given. Whether binding was seen depends on the method and setting. Some entries that bind do so weakly or less than the wild type.

One molecule from publication doi:10.1101/2025.06.23.661224 can be followed below.

The assay addresses isoamylase 1 (potato ISA1) (potato (Solanum tuberosum)) (UniProt Q84YG7). Nature of the assay: two-hybrid.

B1: isoamylase 1 (potato ISA1) (enzyme, UniProt Q84YG7 1-793)
chain: MELLHCPSISTYKPKLSFHNHLFSRRSSNGVDFESIWRKSRSSVVNAAVDSGRGGVVKTAATAVVVEKPTTERCRFEVLSGKPLPFGATATDGGVNFAVFSRNATAATLCLITLSDLPEKRVTEQIFLDPLANKTGDVWHVFLKGDFENMLYGYKFDGKFCPEEGHYFDSSQIVLDPYAKAIVSRGEYGVLGPEDDCWPPMAGMVPSASDQFDWEGDLPLKFPQRDLVIYEMHVRGFTNHESSETKYPGTYLGVVEKLDHLKELGVNCIELMPCHEFNELEYYSYNSVLGDYKFNFWGYSTVNFFSPMGRYSSAGLSNCGLGAINEFKYLVKEAHKRGIEVIMDVVFNHTAEGNENGPILSFRGIDNSVFYTLAPKGEFYNYSGCGNTFNCNNPIVRQFIVDCLRYWVTEMHVDGFRFDLASILTRSSSSWNAVNVYGNSIDGDVITTGTPLTSPPLIDMISNDPILRGVKLIAEAWDCGGLYQVGMFPHWGIWSEWNGKYRDMVRQFIKGTDGFSGAFAECLCGSPNLYQKGGRKPWNSINFVCAHDGFTLADLVTYNNKHNLANGEDNKDGENHNNSWNCGEEGEFASIFVKKLRKRQMRNFFLCLMVSQGVPMIYMGDEYGHTKGGNNNTYCHDNYINYFRWDKKDESSSDFLRFCGLMTKFRHECESLGLDGFPTAERLQWHGHTPRTPDWSETSRFVAFTLVDKVKGELYIAFNASHLPVTITLPDRPGYRWQPFVDTGKPAPFDFLTDDVPERETAAKQYSHFLDANQYPMLSYSSIILLLSSADDA
Consider B1, for which the binding result is given as “binds”.
